Experimental data reported in patent US6302119A, “Low odor permanent waving compositions containing a disulfide” (priority 1999, dated 2001).
For at least one compound, name, drawing or mass did not settle the structure.

Assay: Odor evaluation by 3-4 panelists of activator, waving composition and hair tresses
Experimental: The disulfide or thiol additive was added in the concentration indicated in Tables 3 and 4, to 200 g of neat glyceryl monothioglycolate (GMr) in a 250 mL beaker.
Odor evaluation was conducted by 3-4 panelists who rated the odors on a scale of 1-5 where 1=no malodor and 5=extreme malodor. […] To this solution was added two tresses of dark brown, virgin hair (1 inch wide, 6 inches long), that had been washed with a 10% solution of SLS and soaked in synthetic sweate^8 at 37° C. for 17 hr, then lightly rinsed. The beaker containing the GMT activator was covered with foil and was allowed to sit for 5 to 10 minutes prior to odor evaluation. The tresses were then allowed to process in the wave composition for 20 minutes at room temperature in a covered beaker. The tresses were rinsed with tap water, towel blotted, then added to 80 mL of Matrix Opticurl Rebonding Neutralizer and processed for 5 minutes. After rinsing, the damp hair was evaluated for odor.
8. Recipe for synthetic sweat: 10 g sodium chloride, 1 g potassium hydrogen phosphate, 0.25 g histidine, lactic acid to adjust pH to 3.2 and water to make 1 L.

## CC(C)CCCCCOC(=O)CS [i-octylthioglycolate, reference compound]
0.1%, activator, waving composition and hair
  odor reduction: reduces odor in all three categories
0.1 wt % in GMT, scale 1-5, 1 = no malodor, GMT alone 2.8
  Odor of hair rating: 1.8
0.1 wt % in GMT, scale 1-5, 1 = no malodor, GMT alone 3.6
  Odor rating of waving composition (with activator): 3.3
0.1 wt % in GMT, scale 1-5, 1 = no malodor, GMT alone 3.8
  Odor rating of activator (GMT + additive): 2.5
